# Results reported in PubChem BioAssay AID504834 (National Center for Advancing Translational Sciences (NCATS), 2011).
# Screen size: about 320,000 compounds; about 22,000 (6.9%) were called active. The inconclusive results got no clear call from the source; some entries with a clear call stand among them for comparison. The call rests on the fitted dose curve; in most records, active means well fitted inhibition curve with a large enough effect; inconclusive means small, poorly fitted or top-dose-only effect, or another doubt; inactive means no such curve, though single readings can be large or run the other way. Where the call is inconclusive, the potency comes from a doubtful curve fit.
# Assay: Primary qHTS for delayed death inhibitors of the malarial parasite plastid, 96 hour incubation
# Conditions: P. falciparum luciferase reporter growth; series mostly up to 28.7 µM; activity change, negative = inhibition: at the top concentration
# In short: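 Plates of compound plus infected erythrocytes (2% hematocrit, 0.05% parasitemia final) incubate 96 hours, 37 C, 5% CO2. Detection reagent added; reduced luminescence from the parasites' luciferase reporter flags inhibition.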
# On the % scale 0 is the no-effect control and ±100 the full control effect; potency means the concentration at half of the fitted maximal effect.
SMILES,"activity change, negative = inhibition",Potency
O=C(O)c1ccccc1NCc1cccs1,inactive: -90.6%,–
CCS(=O)(=O)Nc1cccc(C2=NN(S(=O)(=O)c3ccc(C)cc3)C(c3ccco3)C2)c1 (stereo not drawn),–,"inconclusive: 18.5 µM [inhibitor, single point]"
Clc1ccc(C(c2nnnn2C2CCCCC2)N(Cc2cccnc2)Cc2ccco2)cc1 (stereo not drawn),–,"inconclusive: 13.1 µM [inhibitor, single point]"
COc1ccc(Cc2nnc(NC(=O)c3ccc(OC)c(OC)c3)s2)cc1,–,"inconclusive: 18.5 µM [inhibitor, single point]"
Cc1nc(NC(=S)NC(=O)c2cccs2)ccc1Br,–,"inconclusive: 18.5 µM [inhibitor, single point]"
O=C(NC1(C(F)(F)F)Oc2ccccc2O1)N1CCC2(CC1)OCCO2,–,"inconclusive: 3.7 µM [inhibitor, full curve, poor fit]"
CCCCOc1ccc(-c2nnc(N)s2)cc1,–,"inconclusive: 18.5 µM [inhibitor, single point]"
Cc1csc(SC(C)C(=O)Nc2ccc3c(c2)OCCO3)n1 (stereo not drawn),inactive: 1%,–
CCn1c(=O)c2c(nc(SCC(=O)N3CCC(C)CC3)n2C)n(C)c1=O,inactive: 4.26%,–
O=C(C1CC(=O)N(C2CCCCC2)C1)N1CCN(c2ccccc2)CC1 (stereo not drawn),inactive: -5.68%,–
Cc1ccc(NC(=O)CCc2nnc3ccc(N4CCC5(CC4)OCCO5)nn23)cc1F,inactive: 46.8%,–
Cc1ccc(SCc2cc(=O)[nH]c(SCC(=O)Nc3cc(Cl)ccc3Cl)n2)cc1,inactive: 7.1%,–
Cc1nc2cc(-c3ccc(F)cc3)[nH]n2c(=O)c1C,–,"inconclusive: 18.5 µM [inhibitor, single point]"
COc1ccc(S(=O)(=O)N2CCC(C(=O)NCc3cccs3)CC2)cc1,–,"inconclusive: 18.5 µM [inhibitor, single point]"
CCOC(=O)N1CCN(Cc2nc3c(c(=O)[nH]c(=O)n3C)n2CCCc2ccccc2)CC1,–,"inconclusive: 0.415 µM [inhibitor, full curve, poor fit]"
CCc1cccc(NC(=O)Cn2c(-c3ccccc3)cc(C(C)=O)c2C)c1,inactive: -19%,–
CC1(C)CC2CC(C)(CN2C(=O)COC(=O)CNC(=O)c2ccc(Cl)c(Cl)c2)C1 (stereo not drawn),–,"inconclusive: 2.94 µM [inhibitor, full curve, poor fit]"
Cc1cccc(-n2ccnc2SCC(=O)c2c(N)n(C3CC3)c(=O)[nH]c2=O)c1C,–,"inconclusive: 18.5 µM [inhibitor, single point]"
CCOC(=O)c1oc2cccc(O)c2c1CN(Cc1ccccc1)C(C)=O,–,"inconclusive: 3.7 µM [inhibitor, full curve, poor fit]"
CCc1ccc(Nc2nnc(SCC(=O)Nc3sccc3C(N)=O)s2)cc1,–,"inconclusive: 3.7 µM [inhibitor, partial curve]"
CCOC(=O)N1CCC(N2Cc3cccc(C(=O)Nc4cccc(F)c4)c3C2=O)CC1,–,"inconclusive: 11.7 µM [inhibitor, single point]"
CN1CCSc2ccc(C(=O)NCc3ccccc3F)cc21,inactive: 18.2%,–
Cc1ccc(/C=C2/SC(=S)N(CCC(=O)N3CCOCC3)C2=O)cc1,inactive: 6.3%,–

# Reformatted: entries from further up.
SMILES | activity change, negative = inhibition | Potency
COc1ccc(Cc2nnc(NC(=O)c3ccc(OC)c(OC)c3)s2)cc1 | – | inconclusive: 18.5 µM [inhibitor, single point]
O=C(C1CC(=O)N(C2CCCCC2)C1)N1CCN(c2ccccc2)CC1 (stereo not drawn) | inactive: -5.68% | –

# Reprinted at random: 2 compounds from above
SMILES,"activity change, negative = inhibition",Potency
CCCCOc1ccc(-c2nnc(N)s2)cc1,–,"inconclusive: 18.5 µM [inhibitor, single point]"
CCn1c(=O)c2c(nc(SCC(=O)N3CCC(C)CC3)n2C)n(C)c1=O,inactive: 4.26%,–

# Remaining list, next part.

SMILES,"activity change, negative = inhibition",Potency
O=C(NCCCn1ccnc1)c1cn(-c2ccccc2)nc1-c1ccccc1,inactive: -3.44%,–
CC(C)CC(C(=O)Nc1ccc2c(c1)OCCO2)N1C(=O)c2ccccc2C1=O (stereo not drawn),–,"inconclusive: 9.28 µM [inhibitor, single point]"
O=C(CSc1ccc(-c2ccccc2)nn1)NC1CCCCC1,inactive: 49.2%,–
COCCN(C(=O)CSCC(=O)Nc1ccc(C)cc1)c1c(N)n(CC(C)C)c(=O)[nH]c1=O,–,"inconclusive: 18.5 µM [inhibitor, single point]"
CSc1nnc(Cn2c(=O)sc3ccccc32)n1C,–,"inconclusive: 8.28 µM [inhibitor, partial curve]"
N#CC1=C2SCN(c3ccc(F)cc3)CN2C(=O)CC1c1cccc(F)c1 (stereo not drawn),–,"inconclusive: 11.7 µM [inhibitor, single point]"
COc1cc2c(C(=O)N3CCN(C)CC3)c(C)n(-c3ccccc3)c2cc1Br,–,active: 1.47 µM
CN(C)S(=O)(=O)c1ccc(C(=O)OCn2nnc3ccccc3c2=O)cc1,inactive: 10.9%,–
Cc1ccc(N(CC(=O)NCc2ccccc2)S(=O)(=O)c2c(C)noc2C)cc1,–,"inconclusive: 0.147 µM [inhibitor, full curve, poor fit]"
O=C(c1cc2ccccc2o1)N1CCN(C/C=C/c2ccccc2)CC1,–,"inconclusive: 18.5 µM [inhibitor, single point]"
COc1ccc2ccc(OCC(=O)Nc3cc(C)on3)cc2c1,–,"inconclusive: 14.7 µM [inhibitor, partial curve, poor fit]"
O=C(OCc1ccc(F)cc1)c1cc(=O)c2ccccc2o1,inactive: 24.8%,–
CC(C)(C)OC(=O)[C@H](Cc1ccccc1)NC(=O)c1nc[nH]c1C(=O)N[C@@H](Cc1ccccc1)C(=O)OC(C)(C)C,–,"inconclusive: 10.4 µM [inhibitor, single point]"
COc1cc([N+](=O)[O-])cc(/C=N/N(CCC#N)C(C)=O)c1O,inactive: 20.4%,–
COc1cc(C)c(Cl)cc1S(=O)(=O)NCc1ccncc1,–,"inconclusive: 18.5 µM [inhibitor, single point]"
CCCC[C@H]1COCCS(=O)(=O)N1Cc1ccccc1F,inactive: 4.17%,–
CN(c1ccc(C(=O)NCc2cccs2)cc1)S(=O)(=O)c1ccccc1,–,"inconclusive: 9.28 µM [inhibitor, single point]"
CCN(CC)Cc1c(O)ccc2c(=O)c(Oc3ccccc3OC)c(C)oc12,–,"inconclusive: 18.5 µM [inhibitor, single point]"
CC(C)c1cccc(OCC(=O)Nc2ccc(S(=O)(=O)Nc3ccccn3)cc2)c1,–,"inconclusive: 5.86 µM [inhibitor, partial curve, poor fit]"
COC(=O)c1cc(OC)c(OC)cc1NC(=O)c1ccccc1C,–,"inconclusive: 18.5 µM [inhibitor, single point]"
CC(=O)c1ccc(N2CCN(C(=O)c3ccc(OCc4c(C)noc4C)cc3)CC2)cc1,–,"inconclusive: 14.7 µM [inhibitor, partial curve, poor fit]"
CCOc1ccccc1NC(=O)C1CCCN1S(=O)(=O)c1ccccc1C(F)(F)F (stereo not drawn),–,"inconclusive: 11.7 µM [inhibitor, partial curve, poor fit]"
CCN(CC)S(=O)(=O)c1cccc(C(=O)Nc2cc(C)cc(C)c2)c1,–,"inconclusive: 0.0033 µM [inhibitor, full curve, poor fit]"

SMILES,"activity change, negative = inhibition",Potency
Cc1nn2c(COc3ccc(NC(=O)c4ccccc4Cl)cc3)nnc2c2ccccc12,–,active: 4.15 µM
COc1cccc(N2CCN(S(=O)(=O)c3ccc4c(c3)NC(=O)C(C)C(=O)N4)CC2)c1 (stereo not drawn),–,"inconclusive: 18.5 µM [inhibitor, single point]"
Cc1cc(C)cc(Oc2ncnc3c2ncn3Cc2c(Cl)cccc2Cl)c1,–,"inconclusive: 9.28 µM [inhibitor, partial curve, poor fit]"
O=C(Nc1ccc(-c2cc3ccccc3oc2=O)c(Cl)c1)c1cccnc1,inactive: 5.97%,–
CCOc1ccccc1C1N(c2ccc(F)cc2)C(=O)C2CCCN21 (stereo not drawn),–,"inconclusive: 18.5 µM [inhibitor, single point]"
COc1ccccc1/C=C(/C(=O)OCC(=O)NCc1ccccc1)c1ccccc1,inactive: 34%,–
COc1cc2[nH]c(=S)n(C3CCN(Cc4ccccc4)CC3)c(=O)c2cc1OC,–,"inconclusive: 20.8 µM [inhibitor, single point]"
COc1ccc(/C=C2\SC(=O)N(CCC(=O)Nc3ccccc3)C2=O)cc1OC,inactive: -19.2%,–
Cc1cc(C)nc(SCc2cc(=O)c(OC(=O)c3ccco3)co2)n1,–,"inconclusive: 14.7 µM [inhibitor, single point]"
CC(C)CN1CCN(Cc2c(F)cccc2Cl)CC1CCO (stereo not drawn),–,"inconclusive: 20.8 µM [inhibitor, partial curve, poor fit]"
Cc1ccc2c(c1)nc(-n1nc(C)cc1C)c1nnnn12,–,"inconclusive: 11.7 µM [inhibitor, single point]"
COc1ccccc1N(C(=O)CNC(=O)c1ccco1)C(C(=O)NC1CCCCC1)c1ccncc1 (stereo not drawn),inactive: 14.1%,–
O=C(C1CCN(C2CCN(Cc3cccc4c3OCO4)CC2)CC1)N1CCOCC1,–,"inconclusive: 18.5 µM [inhibitor, single point]"
CCCCC(c1nnnn1Cc1ccco1)N1CCN(C(=O)c2ccco2)CC1 (stereo not drawn),–,"inconclusive: 4.15 µM [inhibitor, single point]"
CCc1ccccc1NC(=O)CN1CCN(C(=O)c2ccc(OCc3cn4ccccc4n3)cc2)CC1,–,"inconclusive: 9.28 µM [inhibitor, single point]"
COc1ccc(-c2c(C)n([O-])c3c([n+]2=O)CCCC3)cc1OC,–,"inconclusive: 18.5 µM [inhibitor, single point]"
CCCn1cc(S(=O)(=O)c2ccc(C)cc2)c(=O)c2cc(OC)c(OC)cc21,–,"inconclusive: 0.294 µM [inhibitor, full curve, poor fit]"
CC(=O)N1c2ccc(S(=O)(=O)NCC3CCC(C(=O)Nc4ccc(C)cn4)CC3)cc2CC1C (stereo not drawn),–,"inconclusive: 4.15 µM [inhibitor, partial curve]"
COc1ccccc1C(=O)NCC(=O)NNC(=O)C1COc2ccccc2O1 (stereo not drawn),inactive: 10%,–
CC(=C/c1ccco1)/C=N/NC(=O)c1ccncc1,inactive: 73.1%,–
COc1ccc(-n2ccnc2)cc1,inactive: -2.6%,–
C=CCn1c(=NC(=O)c2ccc(S(=O)(=O)N3CCCc4ccccc43)cc2)sc2cc(S(N)(=O)=O)ccc21,–,active: 4.65 µM
